Results deposited as PubChem BioAssay AID743121 (NCATS, 2013)
Aim: 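Partners whose loss is lethal together with topoisomerase I blockade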 (primary screen). Cells: MDA-MB-231 cells, a human breast cancer line. Knock-down reagent: single siRNA against human genes, 20 nM siRNA (0.8 pmol per well). Time to read-out: 120 h (drug added 48 h after transfection, read 72 h later). Challenge: camptothecin 20 nM (about EC30) for 72 h; vehicle 0.1% DMSO in parallel plates. Detection: 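Cell viability by ATP luminescence (CellTiter-Glo) as % of non-targeting siRNA wells, and the log2 ratio of viability without drug over viability with camptothecin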. Direction: log2 vehicle/camptothecin viability: higher = stronger sensitisation to camptothecin; viability with camptothecin: higher = more viable cells. Units: viability with camptothecin in % of control. Active means: 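Each gene scored by redundant siRNA activity (RSA) over its individual siRNA ratios; a gene is called active at p < 0.001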.
This is one part, drawn at random, of about 26,000 reagents tested. In the full data, 167 (0.63%) got an active call. 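Calls are per gene from RSA p-values that are not deposited; an individual active-marked siRNA can sensitise only weakly.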 Entries without a mark were called inactive. The numbers tell different reagents against one gene apart. Not all columns of the deposit are shown.

Depletion of STK33 #1 resulted in: log2 vehicle/camptothecin viability -0.456; viability with camptothecin 37.6.
For STK33 #2, the values are log2 vehicle/camptothecin viability -0.155; viability with camptothecin 30.
With knock-down of STK33 #3 the results were log2 vehicle/camptothecin viability -0.0328; viability with camptothecin 76.1.
Against STK33 #4, the entry reads log2 vehicle/camptothecin viability -0.294; viability with camptothecin 63.3.
With knock-down of ADH7 #1 the results were log2 vehicle/camptothecin viability -0.117; viability with camptothecin 84.8.
Against ADH7 #2 the deposit lists log2 vehicle/camptothecin viability -0.192; viability with camptothecin 103.
Silencing of ADH7 #3 resulted in: log2 vehicle/camptothecin viability -0.0913; viability with camptothecin 89.5.
With knock-down of ADH7 #4, the screen gave log2 vehicle/camptothecin viability 0.344; viability with camptothecin 55.1.
ASGR1 #1 scored log2 vehicle/camptothecin viability -0.49; viability with camptothecin 87.3.
ASGR1 #2 showed log2 vehicle/camptothecin viability -0.201; viability with camptothecin 43.8.
ASGR1 #3 scored log2 vehicle/camptothecin viability 0.181; viability with camptothecin 28.2.
After knock-down of CFTR #1, the record shows log2 vehicle/camptothecin viability -0.49; viability with camptothecin 64.7.
After knock-down of CFTR #2 the results were log2 vehicle/camptothecin viability -0.0911; viability with camptothecin 96.8.
Depletion of CFTR #3 came out at: log2 vehicle/camptothecin viability -0.147; viability with camptothecin 108.
CFTR #4 gave log2 vehicle/camptothecin viability -0.23; viability with camptothecin 78.4.
ACE2 #1 scored log2 vehicle/camptothecin viability -0.063; viability with camptothecin 65.6.
Silencing of ACE2 #2 gave: log2 vehicle/camptothecin viability -0.00817; viability with camptothecin 105.
ACE2 #3 scored log2 vehicle/camptothecin viability -0.216; viability with camptothecin 84.2.
Silencing of ACE2 #4 came out at: log2 vehicle/camptothecin viability -0.615; viability with camptothecin 58.6.
BNIP1 #1 showed log2 vehicle/camptothecin viability 0.135; viability with camptothecin 54.
Depletion of BNIP1 #2 came out at: log2 vehicle/camptothecin viability 0.228; viability with camptothecin 31.6.
With knock-down of BNIP1 #3, the screen gave log2 vehicle/camptothecin viability -0.318; viability with camptothecin 104.
Against BNIP1 #4, the values are log2 vehicle/camptothecin viability -0.279; viability with camptothecin 62.7.
Depletion of TNRC6C #1 came out at: log2 vehicle/camptothecin viability -0.18; viability with camptothecin 115.
With knock-down of TNRC6C #2, the record shows log2 vehicle/camptothecin viability -0.0229; viability with camptothecin 46.4.
TNRC6C #3 showed log2 vehicle/camptothecin viability -0.0399; viability with camptothecin 43.5.
TNRC6C #4 showed log2 vehicle/camptothecin viability -0.179; viability with camptothecin 76.4.
After knock-down of DHRS1 #1 the results were log2 vehicle/camptothecin viability 0.194; viability with camptothecin 28.2.
After knock-down of DHRS1 #2 the results were log2 vehicle/camptothecin viability 0.0861; viability with camptothecin 69.6.
DHRS1 #3 scored log2 vehicle/camptothecin viability -0.219; viability with camptothecin 86.7.
After knock-down of PLCZ1 #1 the results were log2 vehicle/camptothecin viability -0.332; viability with camptothecin 108.
After knock-down of PLCZ1 #2, the screen gave log2 vehicle/camptothecin viability -0.0994; viability with camptothecin 117.
Knock-down of PLCZ1 #3 gave: log2 vehicle/camptothecin viability -0.128; viability with camptothecin 103.
After knock-down of PLCZ1 #4 the results were log2 vehicle/camptothecin viability -0.141; viability with camptothecin 109.
DIAPH2 #1 scored log2 vehicle/camptothecin viability -0.168; viability with camptothecin 91.5.
For DIAPH2 #2 the deposit lists log2 vehicle/camptothecin viability -0.0497; viability with camptothecin 77.4.
DIAPH2 #3 scored log2 vehicle/camptothecin viability -0.31; viability with camptothecin 121.
DIAPH2 #4 showed log2 vehicle/camptothecin viability -0.224; viability with camptothecin 122.
Knock-down of IL17F #1 gave: log2 vehicle/camptothecin viability -0.292; viability with camptothecin 87.5.
IL17F #2 scored log2 vehicle/camptothecin viability -0.0796; viability with camptothecin 105.
Silencing of IL17F #3 resulted in: log2 vehicle/camptothecin viability -0.239; viability with camptothecin 107.
Depletion of IL17F #4 came out at: log2 vehicle/camptothecin viability 0.173; viability with camptothecin 93.6.
GNAI1 #1 gave log2 vehicle/camptothecin viability -0.132; viability with camptothecin 119.
After knock-down of GNAI1 #2, the screen gave log2 vehicle/camptothecin viability 0.0595; viability with camptothecin 72.7.
Silencing of GNAI1 #3 gave: log2 vehicle/camptothecin viability -0.0933; viability with camptothecin 113.
With knock-down of GNAI1 #4, the screen gave log2 vehicle/camptothecin viability 0.471; viability with camptothecin 20.3.

Targets listed so far whose target name begins with I or i (4):
IL17F #1 — log2 vehicle/camptothecin viability = -0.292; viability with camptothecin = 87.5
IL17F #2 — log2 vehicle/camptothecin viability = -0.0796; viability with camptothecin = 105
IL17F #3 — log2 vehicle/camptothecin viability = -0.239; viability with camptothecin = 107
IL17F #4 — log2 vehicle/camptothecin viability = 0.173; viability with camptothecin = 93.6
